Consider two substances from publication PMC3754431.

Protein sequences, listed by entry. Tags and fused reporters are not part of them.
UniProt P04016: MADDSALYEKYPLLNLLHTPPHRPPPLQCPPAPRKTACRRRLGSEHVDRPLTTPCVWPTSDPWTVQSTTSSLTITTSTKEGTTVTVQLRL
UniProt P06791: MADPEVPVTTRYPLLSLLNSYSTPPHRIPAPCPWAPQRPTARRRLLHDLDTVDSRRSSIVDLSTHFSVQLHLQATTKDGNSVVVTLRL
UniProt P08670: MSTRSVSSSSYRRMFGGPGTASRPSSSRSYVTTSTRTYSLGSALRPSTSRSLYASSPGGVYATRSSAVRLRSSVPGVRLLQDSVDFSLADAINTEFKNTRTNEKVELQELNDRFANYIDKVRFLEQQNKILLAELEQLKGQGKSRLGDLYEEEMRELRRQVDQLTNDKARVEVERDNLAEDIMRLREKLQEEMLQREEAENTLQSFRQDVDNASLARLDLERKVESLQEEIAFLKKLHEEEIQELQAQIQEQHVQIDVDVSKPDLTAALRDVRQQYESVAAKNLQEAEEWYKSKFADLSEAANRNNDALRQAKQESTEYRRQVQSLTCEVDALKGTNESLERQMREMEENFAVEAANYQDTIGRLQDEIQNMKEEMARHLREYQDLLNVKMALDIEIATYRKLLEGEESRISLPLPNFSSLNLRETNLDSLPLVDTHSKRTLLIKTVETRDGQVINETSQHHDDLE

No constants are given. Whether binding was seen depends on the method and setting. In cells and extracts the contact can be indirect. Some binding calls cover weakened binding; strength is not graded here.

Experiment [1] deals with GST-tagged 11E1^E4 (human papillomavirus type 11) (UniProt P04016). Put plainly: pull-down; purified GST-fusion protein (10 μg) with 35S-Met labeled in vitro translated vimentin; 20 mM Tris-HCl pH 7.5, 50 mM NaCl, 4 mM MgCl2, 0.5% Nonidet P-40, 2% skim milk, 2 mM DTT; 4°C, 2 h; SDS-PAGE, detected with BAS5000; only the target purified.
Experiment [2] has as its target GST-tagged 18E1^E4 (human papillomavirus type 18) (UniProt P06791). The experiment is described as above.
Experiment [3] addresses FLAG-18E1^E4 (human papillomavirus type 18) (UniProt P06791). The experiment in a line: co-IP; lysates of 293T cells transfected with FLAG-18E1^E4; anti-FLAG antibody and Protein-G agarose in NET-Gel Buffer, 4°C, ≥ 4 h; immunoblot of the endogenous partner. A general note: A western blot detects proteins with antibodies after separation by electrophoresis.

As to “35S-methionine labeled vimentin obtained by in vitro translation (from UniProt P08670 1-466)”, the binding result in experiment [1] and in experiment [2] was “binds weakly” throughout.
As to “endogenous vimentin (from UniProt P08670 1-466)”, the binding entry in experiment [3] is “binds”.
